PubChem BioAssay AID504791 | Drosophila RNAi Screening Center | 2011
The screen tested about 23,000 reagents; below is an unselected part of those with a known target gene and a result. Of all reagents, 199 (0.86%) are marked active. 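Plate-scaled ratios behind the calls are not deposited; printed light signals are raw; many rows marked increased or decreased are still called inactive.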 A plus sign joins genes that one reagent is predicted to hit. The record does not give: the direction of the score.

Screen: 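Factors in Argonaute-based small RNA production and activity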 (primary screen)
Cell system: Drosophila S2-derived reporter cells
Reagents: long dsRNA against Drosophila genes, about 150-250 ng dsRNA per well (siRNA assay); about 80-120 ng (miRNA assay)
Time to read-out: about 5 days (siRNA assay); about 4 days (miRNA assay)
Challenge: copper sulfate induction of reporters: 25 µM (siRNA assay); 200 mM stated (miRNA assay), 1-2 days before reading
Measurement: 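Dual luciferase assay: Renilla to firefly signal ratio in each well, scaled to the mean ratio of its plate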
Hit rule: 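First-pass picks had plate-scaled ratios over 1.5 for the siRNA assay, over 1.6 for the miRNA assay, or under 0.6; two distinct dsRNAs had to score alike on retest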

Target gene | PubChem SID | miRNA reporter change | stable assay Renilla, run 1 (luminescence) | stable assay firefly, run 1 (luminescence) | call
hd | SID104192108 | – | 5543 | 3.23e5 | inactive
CG4955 | SID104199719 | – | 7268 | 4.59e5 | inactive
Chchd3 | SID104196773 | – | 6043 | 3.91e5 | inactive
His-Psi:CR31754 | SID104201628 | – | 8523 | 6.99e5 | inactive
RpL34b | SID104196267 | – | 7836 | 3.81e5 | inactive
RhoGAP19D | SID104200291 | – | 8631 | 5.02e5 | inactive
RhoGAP19D | SID104200292 | reporter ratio lowered past the hit cutoff | 6239 | 4.19e5 | inactive
UGP | SID104190203 | – | 6948 | 3.70e5 | inactive
mv | SID104188000 | – | 5519 | 4.12e5 | inactive
mv | SID104188362 | – | 5204 | 3.93e5 | inactive
TyrRS | SID104190222 | – | 8614 | 4.14e5 | inactive
CG8892 | SID104182913 | – | 11847 | 1.24e5 | inactive
CG31029 | SID104195214 | – | 7359 | 4.41e5 | inactive
sqz | SID104196772 | – | 8050 | 3.99e5 | inactive
Dbct | SID104199743 | – | 8586 | 4.61e5 | inactive
CG14641 | SID104192019 | – | 13159 | 3.90e5 | inactive
CG34457 | SID104186716 | – | 6191 | 2.78e5 | inactive
CheB93b | SID104201430 | – | 9854 | 5.38e5 | inactive
CG31729 | SID104182316 | – | 8645 | 1.10e6 | inactive
CG31729 | SID104182738 | – | 7459 | 5.35e5 | inactive
inc | SID104197746 | – | 8029 | 4.88e5 | inactive
inc | SID104198304 | – | 4519 | 3.17e5 | inactive
Su(dx) | SID104180583 | – | 30528 | 1.01e6 | inactive
Mal-A5 | SID104187024 | – | 8427 | 5.18e5 | inactive
CG6015 | SID104195740 | – | 9892 | 5.17e5 | inactive
CG8541 | SID104190781 | – | 7020 | 4.80e5 | inactive
BHD | SID104190809 | – | 8170 | 4.73e5 | inactive
BHD | SID104202192 | – | 3083 | 3.77e5 | inactive
CG30480 | SID104186528 | – | 6275 | 3.10e5 | inactive
Nplp3 | SID104189736 | – | 7011 | 4.24e5 | inactive
CG17985 | SID104186494 | – | 6758 | 3.29e5 | inactive
Aef1 | SID104191397 | – | 7722 | 4.04e5 | inactive
CG5612 | SID104195636 | – | 6886 | 5.71e5 | inactive
CG33290 | SID104191285 | – | 6586 | 3.84e5 | inactive
CASK | SID104194380 | – | 2936 | 3.13e5 | inactive
CASK | SID104196389 | – | 8546 | 5.50e5 | inactive
CASK | SID104196390 | – | 7682 | 3.82e5 | inactive
CASK | SID104201541 | – | 9922 | 6.17e5 | inactive
CG32354 | SID104190555 | – | 8464 | 4.49e5 | inactive
CG32354 | SID104190567 | – | 4964 | 4.10e5 | inactive
CG32354 | SID104201543 | – | 10173 | 6.53e5 | inactive
CG4022 | SID104190187 | – | 5832 | 2.54e5 | inactive
FASN2 | SID104179959 | – | 5935 | 4.32e5 | inactive
FASN2 | SID104180402 | – | 2.06e5 | 1.11e5 | inactive
Jon99Ci | SID104196652 | – | 7294 | 3.70e5 | inactive
Agpat3 | SID104190237 | – | 7939 | 2.75e5 | inactive
CG15333 | SID104197808 | – | 5594 | 2.87e5 | inactive
CG15333 | SID104197945 | – | 5526 | 3.06e5 | inactive
Hsp60D | SID104182335 | – | 7650 | 4.16e5 | inactive
Sgf11 | SID104189779 | – | 7270 | 3.74e5 | inactive
CG33144 | SID104185924 | – | 7966 | 3.18e5 | inactive
CG33144 | SID104186816 | – | 7923 | 4.78e5 | inactive
CG44153 | SID104182020 | – | 12803 | 1.42e6 | inactive
CG44153 | SID104182021 | – | 8513 | 6.08e5 | inactive
CG44153 | SID104182694 | – | 8283 | 5.03e5 | inactive
CG44153 | SID104182695 | – | 7949 | 5.67e5 | inactive
D2hgdh | SID104198369 | – | 8579 | 4.40e5 | inactive
Wnt2 | SID104184952 | – | 6092 | 5.11e5 | inactive
Wnt2 | SID104187366 | – | 6051 | 3.28e5 | inactive
Vsp37A | SID104198586 | – | 6275 | 3.82e5 | inactive
CG18088 | SID104182446 | – | 7310 | 3.42e5 | inactive
EndoGI | SID104181756 | – | 6343 | 2.97e5 | inactive
MED22 | SID104197967 | – | 4356 | 3.75e5 | inactive
CG5535 | SID104190306 | – | 8787 | 3.33e5 | inactive
CG17361 | SID104190058 | – | 6998 | 3.61e5 | inactive
fz | SID104191140 | – | 8295 | 3.98e5 | inactive
Ufl1 | SID104192319 | – | 7872 | 3.86e5 | inactive
CG5080 | SID104180469 | – | 32134 | 1.57e5 | inactive
mst | SID104200374 | – | 6362 | 4.65e5 | inactive
Gbs-70E | SID104190847 | – | 7062 | 3.31e5 | inactive
IFT52 | SID104183063 | – | 7847 | 4.38e5 | inactive
Indy | SID104190185 | – | 6778 | 2.72e5 | inactive
CG32856 | SID104192916 | – | 4483 | 4.36e5 | inactive
Sirt6 | SID104195802 | – | 7375 | 3.15e5 | inactive
ste24c + CG30461 | SID104185431 | – | 7376 | 5.19e5 | inactive
ste24c + CG30461 | SID104187108 | – | 6130 | 3.33e5 | inactive
CG31706 | SID104202089 | – | 3432 | 2.96e5 | inactive
Kots | SID104196373 | – | 8334 | 5.28e5 | inactive
CG3907 | SID104184224 | – | 6604 | 5.94e5 | inactive
Ald1 | SID104193901 | – | 5878 | 3.22e5 | inactive
CG7131 | SID104195995 | – | 7732 | 3.74e5 | inactive
CG8407 | SID104186959 | – | 6987 | 5.81e5 | inactive
CG3065 | SID104184125 | – | 37643 | 1.28e6 | inactive
RhoGAPp190 | SID104199889 | – | 6864 | 6.97e5 | inactive
RhoGAPp190 | SID104199891 | – | 8895 | 4.49e5 | inactive
Kcmf1 | SID104194251 | – | 9757 | 3.52e5 | inactive
CG10834 | SID104183485 | – | 8076 | 5.37e5 | inactive
hdly | SID104195641 | – | 7354 | 4.46e5 | inactive
CG9747 | SID104196346 | – | 3611 | 2.89e5 | inactive
G9a | SID104198411 | – | 6880 | 3.09e5 | inactive
eIF3e | SID104190991 | – | 5071 | 3.45e5 | inactive
CG15047 | SID104199415 | – | 4968 | 4.20e5 | inactive
CG15047 | SID104201186 | – | 8787 | 4.54e5 | inactive
Arf6 | SID104185713 | – | 7199 | 3.53e5 | inactive
5-HT1A | SID104184822 | – | 5684 | 3.80e5 | inactive
CG11381 | SID104197572 | – | 5603 | 2.43e5 | inactive
yl | SID104200179 | – | 4740 | 3.46e5 | inactive
CG11309 | SID104191442 | – | 12081 | 3.77e5 | inactive
corolla | SID104199894 | – | 8412 | 4.35e5 | inactive
CG4783 | SID104195436 | – | 4372 | 4.17e5 | inactive
Gr97a | SID104193594 | – | 3844 | 3.46e5 | inactive
Pld3 | SID104182959 | – | 10816 | 4.33e5 | inactive
CG3494 | SID104184167 | – | 7244 | 4.15e5 | inactive
RpL24-like | SID104195903 | – | 6190 | 3.16e5 | inactive
CG8841 | SID104187078 | – | 10052 | 5.63e5 | inactive
CG42238 | SID104182972 | – | 19059 | 1.26e6 | inactive
